Test results: article PMC7311471, “The iron–sulphur cluster in human DNA2 is required for all biochemical activities of DNA2”
Substitutions are numbered along the chain they refer to. Names may count otherwise. Results are given in words; binding and its absence hold for the method and conditions named. Binding seen in cells or lysates may run through a third protein. Some binding calls cover weakened binding; strength is not graded here. Sequences can lack the tags named with a protein.

Sequences of proteins named here, by UniProt entry; tags and fusion partners are left off. A change or cut given only in a name is not applied to a line headed by its entry.
UniProt Q96T76: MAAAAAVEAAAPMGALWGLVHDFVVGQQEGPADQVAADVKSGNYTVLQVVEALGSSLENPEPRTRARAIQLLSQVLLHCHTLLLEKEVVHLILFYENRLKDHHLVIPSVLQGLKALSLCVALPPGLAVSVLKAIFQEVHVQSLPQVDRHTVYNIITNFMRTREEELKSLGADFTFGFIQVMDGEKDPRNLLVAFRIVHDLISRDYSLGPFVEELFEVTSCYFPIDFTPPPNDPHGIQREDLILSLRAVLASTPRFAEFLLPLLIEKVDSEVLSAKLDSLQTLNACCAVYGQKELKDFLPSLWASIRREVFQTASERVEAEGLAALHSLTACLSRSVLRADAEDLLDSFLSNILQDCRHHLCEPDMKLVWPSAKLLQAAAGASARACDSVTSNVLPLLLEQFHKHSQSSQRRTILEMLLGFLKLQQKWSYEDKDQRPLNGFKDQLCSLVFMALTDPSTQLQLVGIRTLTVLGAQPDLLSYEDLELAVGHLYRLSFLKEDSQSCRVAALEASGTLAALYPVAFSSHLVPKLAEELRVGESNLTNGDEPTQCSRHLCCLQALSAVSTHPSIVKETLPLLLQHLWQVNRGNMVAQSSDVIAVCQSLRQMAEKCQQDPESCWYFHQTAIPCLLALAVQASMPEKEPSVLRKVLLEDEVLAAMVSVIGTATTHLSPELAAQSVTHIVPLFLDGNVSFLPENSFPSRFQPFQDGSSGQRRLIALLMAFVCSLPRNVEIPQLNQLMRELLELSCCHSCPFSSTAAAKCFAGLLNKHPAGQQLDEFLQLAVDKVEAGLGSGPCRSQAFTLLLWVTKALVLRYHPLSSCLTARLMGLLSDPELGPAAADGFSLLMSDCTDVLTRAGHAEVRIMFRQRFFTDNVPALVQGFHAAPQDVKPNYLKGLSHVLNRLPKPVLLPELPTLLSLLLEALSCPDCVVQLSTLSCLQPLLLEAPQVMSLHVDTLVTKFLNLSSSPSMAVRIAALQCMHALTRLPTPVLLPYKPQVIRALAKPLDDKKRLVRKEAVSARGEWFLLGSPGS

Experiments:
[1] = target: T1, FLAG-DNA2 C396S (human) (UniProt P51530); experiment: co-IP; FLAG-DNA2 variants over-expressed in HEK293T as bait, anti-FLAG M2 beads 1 h at 4 °C; lysis in 100 mM NaCl, 50 mM Tris-HCl pH 8.0, 10% glycerol, 1 mM EDTA, 0.1% NP-40, 2 mM DTT, Benzonase; eluted with 3x FLAG peptide; Western blot for endogenous MMS19, CIAO1, MIP18
T1 sequence: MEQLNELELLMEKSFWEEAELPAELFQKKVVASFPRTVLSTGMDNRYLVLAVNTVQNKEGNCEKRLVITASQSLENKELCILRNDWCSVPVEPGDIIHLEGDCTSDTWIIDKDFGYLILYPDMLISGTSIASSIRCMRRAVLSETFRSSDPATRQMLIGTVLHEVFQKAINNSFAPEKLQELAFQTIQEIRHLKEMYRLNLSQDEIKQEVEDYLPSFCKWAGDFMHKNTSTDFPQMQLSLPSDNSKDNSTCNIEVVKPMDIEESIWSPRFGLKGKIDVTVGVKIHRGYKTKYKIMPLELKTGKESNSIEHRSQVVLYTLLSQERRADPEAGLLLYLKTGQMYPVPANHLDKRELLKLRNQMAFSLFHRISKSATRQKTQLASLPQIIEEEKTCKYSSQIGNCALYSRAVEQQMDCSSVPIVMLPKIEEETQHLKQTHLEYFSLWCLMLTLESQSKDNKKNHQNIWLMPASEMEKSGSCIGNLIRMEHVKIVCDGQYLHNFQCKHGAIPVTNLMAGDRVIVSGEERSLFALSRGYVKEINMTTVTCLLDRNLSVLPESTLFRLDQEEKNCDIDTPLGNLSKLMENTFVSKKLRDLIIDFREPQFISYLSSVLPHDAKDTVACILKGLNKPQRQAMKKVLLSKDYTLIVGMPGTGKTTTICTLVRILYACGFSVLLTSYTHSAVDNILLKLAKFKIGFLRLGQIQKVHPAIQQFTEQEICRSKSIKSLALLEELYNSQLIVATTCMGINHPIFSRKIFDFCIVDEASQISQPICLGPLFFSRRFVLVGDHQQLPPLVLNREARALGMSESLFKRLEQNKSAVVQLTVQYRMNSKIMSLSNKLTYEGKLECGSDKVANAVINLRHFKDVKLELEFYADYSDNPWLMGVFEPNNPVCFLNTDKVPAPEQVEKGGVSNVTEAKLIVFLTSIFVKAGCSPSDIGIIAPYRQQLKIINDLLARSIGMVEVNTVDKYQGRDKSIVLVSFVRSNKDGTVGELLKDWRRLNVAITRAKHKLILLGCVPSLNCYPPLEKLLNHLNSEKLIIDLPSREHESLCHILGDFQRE

[2] = target: T2, FLAG-DNA2 C136S (human) (UniProt P51530); experiment: as above
T2 sequence: T1 sequence with C136S, S396C

[3] = target: T3, YFP-DNA2 (WT) (human) (UniProt P51530); experiment: pull-down; YFP-DNA2 (WT/C396S) from HEK293T lysate held on GFP-Trap agarose and washed; 50 μl of 25 nM purified FLAG-tagged DNA2 (WT or C396S) added, 1 h at 4 °C; wash 100 mM NaCl, 50 mM Tris-HCl pH 8.0, 10% glycerol, 1 mM EDTA, 0.1% NP-40, 2 mM DTT; Western blot; only the binder purified
T3 sequence: T1 sequence with S396C

[4] = target: T4, YFP-DNA2 C396S (human) (UniProt P51530); experiment: as above
T4 sequence: T1 sequence

For “CIA-targeting complex (MMS19, CIAO1, MIP18) (from UniProt Q96T76 1-1030; O76071 1-339; Q9Y3D0 1-163)”, the binding [1] was “binds” and the binding [2] was “binds”.

B1: purified FLAG-tagged wild-type DNA2 (His6-DNA2-FLAG) (enzyme, UniProt P51530 1-1060)
chain: T1 sequence with S396C
With B1 the binding [3] was “no binding (tested: 25 nM)”.

B2: purified FLAG-tagged DNA2 C396S (His6-DNA2-FLAG C396S) (enzyme, UniProt P51530 1-1060)
chain: T1 sequence
In the case of B2, the binding [4] is reported as “no binding (tested: 25 nM)”.
